Patent US20180037903A1, “METHODS AND MEANS FOR INCREASING STRESS TOLERANCE AND BIOMASS IN PLANTS” (THE UNIVERSITY COURT OF THE UNIVERSITY OF GLASGOW, priority 2013, published 2018)
No constants are given. Whether binding was seen depends on the method and setting. For some assays here: Where a sequence is shown, tags or fusion partners need not be part of it. Values belong to the binder of their own block, whether it stands above or below them.

Assays:
[1] = target: GST alone; experiment: GST pull-down from nuclei-enriched A. thaliana protein samples, anti-HDC1 Western blot
[2] = target: GST alone; experiment: in-vitro GST pull-down of recombinant HDC1-His, anti-His Western blot

binding [1]: no binding
B1: native HDC1 from nuclei-enriched protein samples of A. thaliana wildtype plants (protein)
chain: MSGVPKRSHEEGVTHPSSSSSVAKYPHEDSGSYPKSPHQPVTPPPAQVHHNHQQPHQHPQSQSQSQPQPHLQALPHPHSHSHSHSPLAAAASASAPYEVESRTVVKVARSEPRDGERRSPLPLVYRSPSLPTTVSSSDPHLTHAPVPMEPRDGAKDGREIRVESRENRSDGREIYGETKREIQGPKGDRDVKFERSVDDFSGKGNTGSYTRNDGREMYGETKREIQGPKSDRDAKFERPGDDFSGKSNAGSYTRDTKFDRENQNYNEQKGEIKMEKEGHAHLAWKEQKDYHRGKRVAEGSTANVDPWVVSRGNPQGPTEVGPKDLSAPVEGSHLEGRETVGENKVDAKNEDRFKEKDKKRKELKHREWGDRDKDRNDRRVSVLVGSVMSEPKEIGREERESDRWERERMEQKDRERNKEKDKDHIKREPRTGAEKEISQNEKELGEASAKPSEQEYVAPEQKKQNEPDNCEKDERETKEKRRERDGDSEAERAEKRSRISEKESEDGCLEGEGATEREKDAFNYGVQQRKRALRPRGSPQTTNRDNVRSRSQDNEGVQGKSEVSIVVYKVGECMQELIKLWKEYDLSHPDKSGDFANNGPTLEVRIPAEHVTATNRQVRGGQLWGTDIYTDDSDLVAVLMHTGYCRPTASPPPPTMQELRTTIRVLPSQDYYTSKLRNNVRSRAWGAGIGCSYRVERCYILKKGGGTIELEPSLTHSSTVEPTLAPMAVERSMTTRAAASNALRQQRFVREVTIQYNLCNEPWIKYSISIVADKGLKKPLFTSARLKKGEVLYLETHSCRYELCFAGEKTIKAIQASQQQSSHEAMETDNNNNKSQNHLTNGDKTDSDNSLIDVFRWSRCKKPLPQKLMRSIGFPLPADHIEVLEENLDWEDVQWSQTGVWIAGKEYTLARVHFLSPN

binding [2]: no binding
B2: recombinant HDC1-His (protein, not shown: small tags and cut ends)
chain: B1 chain
